Source: US20250002570A1 (Innovent, published 2025)
These are yes or no findings as the source states them, for the method shown. Some binding calls cover weakened binding; strength is not graded here. For some of these results: Where a sequence is shown, tags or fusion partners need not be part of it.

T1: human VEGF C (human, UniProt P49767 103-227, limits assumed)
T1 construct: also called hVEGFC; hVEGF C
T1 sequence (looked up): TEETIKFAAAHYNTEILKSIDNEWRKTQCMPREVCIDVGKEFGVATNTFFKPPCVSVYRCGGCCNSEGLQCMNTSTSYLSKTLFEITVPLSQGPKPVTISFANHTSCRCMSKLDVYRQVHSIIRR


How the values were obtained:
[1] = target: T1, human VEGF C; assay: BLI (ForteBio) and ELISA blocking, as in Examples 3-4
[2] = target: T1, human VEGF C; assay: phage panning and binding ELISA of clones from the affinity maturation library

| Binder | binding [1] | binding [2] |
| --- | --- | --- |
| LA49G9.2 humanized anti-VEGF C VHH-Fc antibody (Fc fusion, not shown: Fc part (and any hinge or linker) of the dimerized VHH-Fc antibody) EVQLVESGGGLVQPGGSLRLSCAASGSMFSMYAMGWYRQAPGKQRELVAATTSGGSTLYADSVKGRFTISRDNSKNTLYLQMNSLRAEDTAVYYCYTYWRGSDPENYWGQGTQVTVSS | binds | – |
| LA63G12.1 humanized anti-VEGF C VHH-Fc antibody (Fc fusion, not shown: Fc part (and any hinge or linker) of the dimerized VHH-Fc antibody) EVQLVESGGGLVQPGGSLRLSCAASGSSFSPYAMGWYRQAPGKQRELVSATTSGGSTLYADSVKGRFTISRDNSKNTVYLQMNSLRAEDTAVYYCYMHWRGSDPENYWGQGTQVTVSS | binds | – |
| am63G12-14B11 affinity-matured humanized anti-VEGF C VHH antibody (VHH, also called am63G12.1-14B11) VHH: EVQLVESGGGLVQPGGSLRLSCAASGSSFSPYAMGWYRQAPGKQRELVSATSEGGFTLYADSVKGRFTISRDNSKNTVYLQMNSLRAEDTAVYYCYMHWRGSDPENYWGQGTQVTVSS | – | binds |
| am63G12-5G8-18B9 affinity-matured humanized anti-VEGF C VHH antibody (VHH, also called Am63G2-5G8-18B9; am63G12.1-5G8-18B9) VHH: EVQLVESGGGLVQPGGSLRLSCAASGSSFSPYAMGWYRQAPGKQRELVSATSSGGFTLYADSVKGRFTISRDNSKNTVYLQMNSLRAEDTAVYYCYTYYREYDPEMYWGQGTQVTVSS | – | binds |
